{
  "source": "the supplement of paper PMC8728848",
  "binders": {"B1": {"name": "RfpC (Mycobacterium tuberculosum), O07747 (protein)", "chain": "MHHHHHHSSGRENLYFQGHMASKSAMAAGLVTASMSLSTAVAHAGPSPNWDAVAQCESGGNWAANTGNGKYGGLQFKPATWAAFGGVGNPAAASREQQIAVANRVLAEQGLDAWPTCGAASGLPIALWSKPAQGIKGS"}},
  "experiment_in_all_cases": "glycan array binding signal (z-score within array); higher = stronger binding",
  "conditions_in_all_cases": "glycan notation: IUPAC condensed, linker removed",
  "key": {"Fuc(a1-2)Gal": {"molecular_target": "Fuc(a1-2)Gal", "in_short": "(§1)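 The binding signal is a Z-score computed within each array and averaged over linkers. Arrays of the same protein sequence at different concentrations or buffers were also averaged together. Data originate from 3228 arrays in the Consortium for Functional Glycomics database, kept only where the protein sequence was available.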"}, "Fuc(a1-2)Gal(b1-3)GalNAc": {"molecular_target": "Fuc(a1-2)Gal(b1-3)GalNAc", "in_short": "as §1"}, "[1]": {"molecular_target": "Fuc(a1-2)Gal(b1-3)GalNAc(b1-3)Gal", "in_short": "as §1"}, "[2]": {"molecular_target": "Fuc(a1-2)Gal(b1-3)GalNAc(b1-3)Gal(a1-4)Gal(b1-4)Glc", "in_short": "as §1"}, "[3]": {"molecular_target": "Fuc(a1-2)Gal(b1-3)GalNAc(b1-4)[Neu5Ac(a2-3)]Gal(b1-4)Glc", "in_short": "as §1"}, "Fuc(a1-2)Gal(b1-3)GlcNAc": {"molecular_target": "Fuc(a1-2)Gal(b1-3)GlcNAc", "in_short": "as §1"}, "[4]": {"molecular_target": "Fuc(a1-2)Gal(b1-3)GlcNAc(b1-3)Gal(b1-4)Glc", "in_short": "as §1"}, "[5]": {"molecular_target": "Fuc(a1-2)Gal(b1-3)[Fuc(a1-4)]GlcNAc", "in_short": "as §1"}, "Fuc(a1-2)Gal(b1-4)Glc": {"molecular_target": "Fuc(a1-2)Gal(b1-4)Glc", "in_short": "as §1"}, "Fuc(a1-2)Gal(b1-4)Glc6S": {"molecular_target": "Fuc(a1-2)Gal(b1-4)Glc6S", "in_short": "as §1"}, "Fuc(a1-2)Gal(b1-4)GlcNAc": {"molecular_target": "Fuc(a1-2)Gal(b1-4)GlcNAc", "in_short": "as §1"}, "[6]": {"molecular_target": "Fuc(a1-2)Gal(b1-4)GlcNAc(b1-2)Man(a1-3)[Fuc(a1-2)Gal(b1-4)GlcNAc(b1-2)Man(a1-6)]Man(b1-4)GlcNAc(b1-4)GlcNAc", "in_short": "as §1"}, "[7]": {"molecular_target": "Fuc(a1-2)Gal(b1-4)GlcNAc(b1-2)Man(a1-6)[Gal(b1-4)GlcNAc(b1-2)Man(a1-3)]Man(b1-4)GlcNAc(b1-4)GlcNAc", "in_short": "as §1"}, "[8]": {"molecular_target": "Fuc(a1-2)Gal(b1-4)GlcNAc(b1-3)Gal(b1-4)GlcNAc", "in_short": "as §1"}, "[9]": {"molecular_target": "Fuc(a1-2)Gal(b1-4)GlcNAc(b1-3)Gal(b1-4)GlcNAc(b1-3)Gal(b1-4)GlcNAc", "in_short": "as §1"}, "[10]": {"molecular_target": "Fuc(a1-2)Gal(b1-4)GlcNAc6S", "in_short": "as §1"}, "[11]": {"molecular_target": "Fuc(a1-2)Gal(b1-4)[Fuc(a1-3)]GlcNAc", "in_short": "as §1"}, "[12]": {"molecular_target": "Fuc(a1-2)Gal(b1-4)[Fuc(a1-3)]GlcNAc(b1-3)Gal(b1-4)[Fuc(a1-3)]GlcNAc", "in_short": "as §1"}, "[13]": {"molecular_target": "Fuc(a1-2)Gal(b1-4)[Fuc(a1-3)]GlcNAc(b1-3)Gal(b1-4)[Fuc(a1-3)]GlcNAc(b1-3)Gal(b1-4)[Fuc(a1-3)]GlcNAc", "in_short": "as §1"}, "Fuc(a1-2)Gal6S(b1-4)Glc": {"molecular_target": "Fuc(a1-2)Gal6S(b1-4)Glc", "in_short": "as §1"}, "[14]": {"molecular_target": "Fuc(a1-2)Gal6S(b1-4)Glc6S", "in_short": "as §1"}, "[15]": {"molecular_target": "Fuc(a1-2)Gal6S(b1-4)GlcNAc", "in_short": "as §1"}, "Fuc(a1-2)[Gal(a1-3)]Gal": {"molecular_target": "Fuc(a1-2)[Gal(a1-3)]Gal", "in_short": "as §1"}, "[16]": {"molecular_target": "Fuc(a1-2)[Gal(a1-3)]Gal(b1-3)GlcNAc", "in_short": "as §1"}, "[17]": {"molecular_target": "Fuc(a1-2)[Gal(a1-3)]Gal(b1-4)Glc", "in_short": "as §1"}, "[18]": {"molecular_target": "Fuc(a1-2)[Gal(a1-3)]Gal(b1-4)GlcNAc", "in_short": "as §1"}, "[19]": {"molecular_target": "Fuc(a1-2)[Gal(a1-3)]Gal(b1-4)[Fuc(a1-3)]GlcNAc", "in_short": "as §1"}, "[20]": {"molecular_target": "Fuc(a1-2)[Gal(a1-4)]Gal(b1-4)GlcNAc", "in_short": "as §1"}, "[21]": {"molecular_target": "Fuc(a1-2)[GalNAc(a1-3)]Gal", "in_short": "as §1"}, "[22]": {"molecular_target": "Fuc(a1-2)[GalNAc(a1-3)]Gal(b1-3)GlcNAc", "in_short": "as §1"}, "[23]": {"molecular_target": "Fuc(a1-2)[GalNAc(a1-3)]Gal(b1-4)Glc", "in_short": "as §1"}, "[24]": {"molecular_target": "Fuc(a1-2)[GalNAc(a1-3)]Gal(b1-4)GlcNAc", "in_short": "as §1"}, "[25]": {"molecular_target": "Fuc(a1-2)[GalNAc(a1-3)]Gal(b1-4)[Fuc(a1-3)]GlcNAc", "in_short": "as §1"}, "[26]": {"molecular_target": "Fuc(a1-2)[GalNAc(a1-4)]Gal(b1-4)GlcNAc", "in_short": "as §1"}, "[27]": {"molecular_target": "Fuc(a1-2)[GalNAc(b1-3)]Gal", "in_short": "as §1"}, "Fuc(a1-3)GlcNAc": {"molecular_target": "Fuc(a1-3)GlcNAc", "in_short": "as §1"}, "[28]": {"molecular_target": "Fuc(a1-3)[Gal(b1-4)]Glc6S", "in_short": "as §1"}, "[29]": {"molecular_target": "Fuc(a1-3)[Gal(b1-4)]GlcNAc", "in_short": "as §1"}, "[30]": {"molecular_target": "Fuc(a1-3)[Gal(b1-4)]GlcNAc(b1-3)Gal(b1-3)[Fuc(a1-4)]GlcNAc", "in_short": "as §1"}, "[31]": {"molecular_target": "Fuc(a1-3)[Gal(b1-4)]GlcNAc(b1-4)Gal(b1-4)[Fuc(a1-3)]GlcNAc", "in_short": "as §1"}, "[32]": {"molecular_target": "Fuc(a1-3)[Gal(b1-4)]GlcNAc(b1-4)Gal(b1-4)[Fuc(a1-3)]GlcNAc(b1-4)Gal(b1-4)[Fuc(a1-3)]GlcNAc", "in_short": "as §1"}, "[33]": {"molecular_target": "Fuc(a1-3)[Gal(b1-4)]GlcNAc6S", "in_short": "as §1"}, "[34]": {"molecular_target": "Fuc(a1-3)[Gal3S(b1-4)]Glc6S", "in_short": "as §1"}, "[35]": {"molecular_target": "Fuc(a1-3)[Gal3S(b1-4)]GlcNAc", "in_short": "as §1"}, "[36]": {"molecular_target": "Fuc(a1-3)[Gal3S(b1-4)]GlcNAc6S", "in_short": "as §1"}},
  "note": "This is one part of the list.",
  "data": [
    {"binder": "B1", "values": [
      {"measurement": "glycan array binding signal (z-score)", "setting": "Fuc(a1-2)Gal", "result": -1.03},
      {"measurement": "glycan array binding signal (z-score)", "setting": "Fuc(a1-2)Gal(b1-3)GalNAc", "result": -0.613},
      {"measurement": "glycan array binding signal (z-score)", "setting": "[1]", "result": 1.51},
      {"measurement": "glycan array binding signal (z-score)", "setting": "[2]", "result": -0.686},
      {"measurement": "glycan array binding signal (z-score)", "setting": "[3]", "result": -0.182},
      {"measurement": "glycan array binding signal (z-score)", "setting": "Fuc(a1-2)Gal(b1-3)GlcNAc", "result": 0.092},
      {"measurement": "glycan array binding signal (z-score)", "setting": "[4]", "result": 0.546},
      {"measurement": "glycan array binding signal (z-score)", "setting": "[5]", "result": 0.273},
      {"measurement": "glycan array binding signal (z-score)", "setting": "Fuc(a1-2)Gal(b1-4)Glc", "result": 0.855},
      {"measurement": "glycan array binding signal (z-score)", "setting": "Fuc(a1-2)Gal(b1-4)Glc6S", "result": 2.16},
      {"measurement": "glycan array binding signal (z-score)", "setting": "Fuc(a1-2)Gal(b1-4)GlcNAc", "result": 0.119},
      {"measurement": "glycan array binding signal (z-score)", "setting": "[6]", "result": -0.663},
      {"measurement": "glycan array binding signal (z-score)", "setting": "[7]", "result": 0.208},
      {"measurement": "glycan array binding signal (z-score)", "setting": "[8]", "result": 0.201},
      {"measurement": "glycan array binding signal (z-score)", "setting": "[9]", "result": 0.53},
      {"measurement": "glycan array binding signal (z-score)", "setting": "[10]", "result": -0.27},
      {"measurement": "glycan array binding signal (z-score)", "setting": "[11]", "result": 0.115},
      {"measurement": "glycan array binding signal (z-score)", "setting": "[12]", "result": -1.41},
      {"measurement": "glycan array binding signal (z-score)", "setting": "[13]", "result": 1.76},
      {"measurement": "glycan array binding signal (z-score)", "setting": "Fuc(a1-2)Gal6S(b1-4)Glc", "result": -0.23},
      {"measurement": "glycan array binding signal (z-score)", "setting": "[14]", "result": -0.156},
      {"measurement": "glycan array binding signal (z-score)", "setting": "[15]", "result": 0.663},
      {"measurement": "glycan array binding signal (z-score)", "setting": "Fuc(a1-2)[Gal(a1-3)]Gal", "result": -0.091},
      {"measurement": "glycan array binding signal (z-score)", "setting": "[16]", "result": -0.784},
      {"measurement": "glycan array binding signal (z-score)", "setting": "[17]", "result": 0.195},
      {"measurement": "glycan array binding signal (z-score)", "setting": "[18]", "result": -0.616},
      {"measurement": "glycan array binding signal (z-score)", "setting": "[19]", "result": -1},
      {"measurement": "glycan array binding signal (z-score)", "setting": "[20]", "result": -0.099},
      {"measurement": "glycan array binding signal (z-score)", "setting": "[21]", "result": -0.02},
      {"measurement": "glycan array binding signal (z-score)", "setting": "[22]", "result": -0.273},
      {"measurement": "glycan array binding signal (z-score)", "setting": "[23]", "result": 0.542},
      {"measurement": "glycan array binding signal (z-score)", "setting": "[24]", "result": -0.005},
      {"measurement": "glycan array binding signal (z-score)", "setting": "[25]", "result": 0.314},
      {"measurement": "glycan array binding signal (z-score)", "setting": "[26]", "result": 0.699},
      {"measurement": "glycan array binding signal (z-score)", "setting": "[27]", "result": 0.437},
      {"measurement": "glycan array binding signal (z-score)", "setting": "Fuc(a1-3)GlcNAc", "result": -0.148},
      {"measurement": "glycan array binding signal (z-score)", "setting": "[28]", "result": 0.296},
      {"measurement": "glycan array binding signal (z-score)", "setting": "[29]", "result": -0.802},
      {"measurement": "glycan array binding signal (z-score)", "setting": "[30]", "result": -0.561},
      {"measurement": "glycan array binding signal (z-score)", "setting": "[31]", "result": -1.47},
      {"measurement": "glycan array binding signal (z-score)", "setting": "[32]", "result": -0.13},
      {"measurement": "glycan array binding signal (z-score)", "setting": "[33]", "result": -0.044},
      {"measurement": "glycan array binding signal (z-score)", "setting": "[34]", "result": -1.53},
      {"measurement": "glycan array binding signal (z-score)", "setting": "[35]", "result": 0.264},
      {"measurement": "glycan array binding signal (z-score)", "setting": "[36]", "result": 1.7}
    ]}
  ]
}
